Reference: PubChem BioAssay AID248 (DTP/NCI, 2004)
The list is a part of this screen's results and no random one: it is rich in T/C values a quarter to a half above the control, in often repeated tests (any T/C) and in doses without a T/C. Further doses and runs are listed elsewhere. T/C: endpoint of the treated group in % of that of the vehicle group. Some entries give survivors of the animals treated and no T/C: the source files T/C as zero there, which appears to mark a toxic dose or a test without result, not a measured value. Some doses without a T/C left all or most animals alive at the check, yet need not have been tolerated: the source hardly ever lists a survival T/C far under the control, and the zero likely stands for such cases as well. Survivors were counted at the toxicity check, usually on the fifth day, unless a day is given; later deaths do not show. Schedules are NCI's codes, taken here to give the interval after Q, in days (D) or hours (H), and the number of doses after X. Some entries were tested several times; the values are given in rising order. Where survival is the endpoint, this PubChem deposit counts one and a half times the control or more as active, and values a quarter to a half above the control carry no call in these data; other NCI protocols may use other cut-offs. Some T/C values are followed by the survivors on the day toxicity was checked, most often the fifth; without a count, all were alive then.

Tested on: L1210 leukemia ip in BDF1 mice, survival T/C
Test: NCI In Vivo Anticancer Drug Screen. Data for tumor model L1210 Leukemia (intraperitoneal) in B6D2F1 (BDF1) mice
Conditions: T/C endpoint: mean survival time, higher T/C = longer survival
[1] = dose: 200.0 mg/kg/injection, schedule: Q04DX003 (ip), vehicle: saline with Tween-80
[2] = dose: 400.0 mg/kg/injection, schedule: Q04DX003 (ip), vehicle: saline with Tween-80
[3] = dose: 200.0 mg/kg/injection, schedule: Q01DX001 (ip), vehicle: saline
[4] = dose: 400.0 mg/kg/injection, schedule: Q01DX001 (ip), vehicle: saline
[5] = dose: 100.0 mg/kg/injection, schedule: Q04DX003 (ip), vehicle: saline with Tween-80

## NC1(CO)COC(c2ccccc2)OC1 (stereo not drawn)
dose: 25.0 mg/kg/injection, schedule: Q01DX009 (ip), vehicle: saline
  T/C: 125 % of control [5 of 6 alive]
dose: 200.0 mg/kg/injection, schedule: Q01DX009 (ip), vehicle: saline sonified
  survivor count: 2 of 6
dose: 200.0 mg/kg/injection, schedule: Q04DX003 (ip), vehicle: saline
  survivor count: 2 of 6
dose: 400.0 mg/kg/injection, schedule: Q01DX009 (ip), vehicle: saline sonified
  survivor count: 0 of 6
dose: 400.0 mg/kg/injection, schedule: Q04DX003 (ip), vehicle: saline
  survivor count: 1 of 6

## C(#[C][Sn]([c]1ccccc1)([c]1ccccc1)[c]1ccccc1)c1ccccc1
dose: 100.0 mg/kg/injection, schedule: Q04DX002 (ip), vehicle: Klucel (hydroxypropylcellulose) (HPC)
  survivor count: 0 of 3 and 1 of 3
dose: 200.0 mg/kg/injection, schedule: Q04DX002 (ip), vehicle: Klucel (hydroxypropylcellulose) (HPC)
  survivor count: 0 of 3
dose: 400.0 mg/kg/injection, schedule: Q04DX002 (ip), vehicle: Klucel (hydroxypropylcellulose) (HPC)
  survivor count: 0 of 3

## CCCCCCCCCCCCOC(C(=O)O)(c1ccccc1)c1ccccc1
[1]
  survivor count: 6 of 6
[2]
  survivor count: 1 of 6

## CC[n+]1cccc2ccccc21
[3]
  survivor count: 1 of 6
[4]
  survivor count: 0 of 6

## CCOCCN1CCN(CCCN2c3ccccc3Sc3ccc(C(F)(F)F)cc32)CC1
dose: 3.12 mg/kg/injection, schedule: Q01DX009 (ip), vehicle: water
  survivor count: 6 of 6
dose: 6.25 mg/kg/injection, schedule: Q01DX009 (ip), vehicle: water
  survivor count: 5 of 6
dose: 12.5 mg/kg/injection, schedule: Q01DX009 (ip), vehicle: water
  survivor count: 6 of 6
dose: 25.0 mg/kg/injection, schedule: Q01DX009 (ip), vehicle: water
  survivor count: 5 of 6
dose: 35.0 mg/kg/injection, schedule: Q04DX003 (ip), vehicle: other
  T/C: 136 % of control
dose: 50.0 mg/kg/injection, schedule: Q01DX009 (ip), vehicle: water
  survivor count: 3 of 6
dose: 50.0 mg/kg/injection, schedule: Q04DX003 (ip), vehicle: water
  T/C: 127 % of control [5 of 6 alive]
dose: 200.0 mg/kg/injection, schedule: Q04DX003 (ip), vehicle: water
  survivor count: 1 of 6
dose: 400.0 mg/kg/injection, schedule: Q04DX003 (ip), vehicle: water
  survivor count: 0 of 6

## C=C1C(=O)OCC2(C)CCCCC12 (stereo not drawn)
dose: 40.0 mg/kg/injection, schedule: Q04DX003 (ip), vehicle: saline
  survivor count: 0 of 6
[5]
  survivor count: 0 of 6
[1]
  survivor count: 0 of 6
[2]
  survivor count: 0 of 6

## COc1cc2c[n+](C)c3c4ccccc4ccc3c2cc1OC
dose: 400.0 mg/kg/injection, schedule: Q01DX001 (ip), vehicle: saline with Tween-80
  survivor count: 3 of 3

## CCOC(=O)C1(Cl)OC(Cl)(Cl)C(Cl)C1Cl (stereo not drawn)
dose: 100.0 mg/kg/injection, schedule: Q01DX001 (ip), vehicle: saline
  survivor count: 0 of 6
[3]
  survivor count: 0 of 6
[4]
  survivor count: 0 of 6

## CCOC(=O)c1c[nH]c2cc([N+](=O)[O-])ccc2c1=O
[5]
  survivor count: 6 of 6

## CCCCNC(=O)OC
dose: 400.0 mg/kg/injection, schedule: Q04DX003 (ip), vehicle: Klucel (hydroxypropylcellulose) (HPC)
  survivor count: 2 of 6

## CCN(CC)C/C=C/C(C)Nc1ccnc2cc(Cl)ccc12 (stereo not drawn)
dose: 100.0 mg/kg/injection, schedule: Q04DX002 (ip), vehicle: saline with Tween-80
  survivor count: 0 of 3
dose: 200.0 mg/kg/injection, schedule: Q04DX002 (ip), vehicle: saline with Tween-80
  survivor count: 0 of 3
dose: 400.0 mg/kg/injection, schedule: Q04DX002 (ip), vehicle: saline with Tween-80
  survivor count: 0 of 3

## CC(=O)OC1C=CCC2C(=O)C34CC=CC(OC(C)=O)C3(C(=O)c3ccccc3C4=O)C(=O)C12 (stereo not drawn)
dose: 75.0 mg/kg/injection, schedule: Q04DX003 (ip), vehicle: saline
  survivor count: 6 of 6
dose: 150.0 mg/kg/injection, schedule: Q04DX003 (ip), vehicle: saline
  survivor count: 6 of 6
dose: 300.0 mg/kg/injection, schedule: Q04DX003 (ip), vehicle: saline
  survivor count: 6 of 6

## CC(Br)C(=O)NC(CC(N)=O)C(=O)O (stereo not drawn)
dose: 400.0 mg/kg/injection, schedule: Q01DX009 (ip), vehicle: saline with Tween-80
  survivor count: 6 of 6
